Laboratory results from PMC6797804, “Histone H3K23-specific acetylation by MORF is coupled to H3K14 acylation” (Nature Communications, 2019).
These are yes or no findings as the source states them, for the method shown. Binding seen in cells or lysates may run through a third protein. Some entries that bind do so weakly or less than the wild type.

Chains of the proteins cited; added tags and fusions are not shown.
UniProt Q8WYB5: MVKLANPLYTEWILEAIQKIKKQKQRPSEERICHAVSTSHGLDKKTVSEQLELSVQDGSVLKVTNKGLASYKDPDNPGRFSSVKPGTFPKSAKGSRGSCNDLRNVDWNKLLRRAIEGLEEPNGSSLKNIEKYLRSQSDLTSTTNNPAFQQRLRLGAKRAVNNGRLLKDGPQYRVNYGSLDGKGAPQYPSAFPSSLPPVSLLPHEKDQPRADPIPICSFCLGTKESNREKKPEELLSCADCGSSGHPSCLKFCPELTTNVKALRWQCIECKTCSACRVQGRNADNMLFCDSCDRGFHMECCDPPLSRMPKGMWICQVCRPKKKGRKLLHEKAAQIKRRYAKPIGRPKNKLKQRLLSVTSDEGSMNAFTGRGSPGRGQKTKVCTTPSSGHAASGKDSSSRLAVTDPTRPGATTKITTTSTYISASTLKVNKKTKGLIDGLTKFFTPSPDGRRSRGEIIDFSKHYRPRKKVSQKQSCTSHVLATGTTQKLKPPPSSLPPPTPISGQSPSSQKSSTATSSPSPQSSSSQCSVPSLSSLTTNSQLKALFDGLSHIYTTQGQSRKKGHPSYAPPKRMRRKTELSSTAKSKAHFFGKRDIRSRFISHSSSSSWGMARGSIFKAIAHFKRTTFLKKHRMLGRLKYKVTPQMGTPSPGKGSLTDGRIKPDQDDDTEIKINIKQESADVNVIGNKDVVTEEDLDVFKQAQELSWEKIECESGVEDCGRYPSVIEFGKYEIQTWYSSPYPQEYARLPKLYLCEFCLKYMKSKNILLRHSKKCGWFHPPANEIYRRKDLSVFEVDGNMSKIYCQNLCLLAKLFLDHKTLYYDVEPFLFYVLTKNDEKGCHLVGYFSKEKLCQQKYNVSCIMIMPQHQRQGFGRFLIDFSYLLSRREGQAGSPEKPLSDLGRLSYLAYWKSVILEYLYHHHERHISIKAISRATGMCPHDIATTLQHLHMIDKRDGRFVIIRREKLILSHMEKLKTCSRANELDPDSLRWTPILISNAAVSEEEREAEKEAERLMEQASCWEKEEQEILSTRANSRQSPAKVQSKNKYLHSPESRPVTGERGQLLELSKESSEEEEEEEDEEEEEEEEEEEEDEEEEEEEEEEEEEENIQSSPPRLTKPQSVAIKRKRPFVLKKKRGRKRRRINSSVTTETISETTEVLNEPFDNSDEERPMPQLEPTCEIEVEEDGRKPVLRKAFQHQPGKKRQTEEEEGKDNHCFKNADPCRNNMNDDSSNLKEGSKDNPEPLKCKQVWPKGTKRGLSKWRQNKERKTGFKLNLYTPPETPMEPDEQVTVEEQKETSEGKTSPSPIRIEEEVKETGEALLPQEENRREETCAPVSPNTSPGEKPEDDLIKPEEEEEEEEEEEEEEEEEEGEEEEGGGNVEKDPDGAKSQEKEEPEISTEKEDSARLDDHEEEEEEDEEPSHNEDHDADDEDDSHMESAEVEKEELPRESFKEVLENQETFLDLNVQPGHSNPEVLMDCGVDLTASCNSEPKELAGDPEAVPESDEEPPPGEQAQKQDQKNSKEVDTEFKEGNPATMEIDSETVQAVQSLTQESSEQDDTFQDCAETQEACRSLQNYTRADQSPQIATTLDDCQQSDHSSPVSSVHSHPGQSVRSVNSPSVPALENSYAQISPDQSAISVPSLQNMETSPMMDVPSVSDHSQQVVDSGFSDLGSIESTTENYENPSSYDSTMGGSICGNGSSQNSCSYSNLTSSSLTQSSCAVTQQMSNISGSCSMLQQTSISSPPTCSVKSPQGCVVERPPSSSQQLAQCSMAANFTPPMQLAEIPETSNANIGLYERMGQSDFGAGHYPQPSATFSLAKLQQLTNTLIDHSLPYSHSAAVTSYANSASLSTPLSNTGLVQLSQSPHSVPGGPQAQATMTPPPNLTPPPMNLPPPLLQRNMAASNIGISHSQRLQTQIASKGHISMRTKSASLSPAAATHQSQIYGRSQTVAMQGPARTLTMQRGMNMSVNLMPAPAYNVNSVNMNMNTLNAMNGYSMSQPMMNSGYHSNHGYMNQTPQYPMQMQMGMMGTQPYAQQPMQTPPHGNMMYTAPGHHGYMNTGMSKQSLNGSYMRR
UniProt P55201: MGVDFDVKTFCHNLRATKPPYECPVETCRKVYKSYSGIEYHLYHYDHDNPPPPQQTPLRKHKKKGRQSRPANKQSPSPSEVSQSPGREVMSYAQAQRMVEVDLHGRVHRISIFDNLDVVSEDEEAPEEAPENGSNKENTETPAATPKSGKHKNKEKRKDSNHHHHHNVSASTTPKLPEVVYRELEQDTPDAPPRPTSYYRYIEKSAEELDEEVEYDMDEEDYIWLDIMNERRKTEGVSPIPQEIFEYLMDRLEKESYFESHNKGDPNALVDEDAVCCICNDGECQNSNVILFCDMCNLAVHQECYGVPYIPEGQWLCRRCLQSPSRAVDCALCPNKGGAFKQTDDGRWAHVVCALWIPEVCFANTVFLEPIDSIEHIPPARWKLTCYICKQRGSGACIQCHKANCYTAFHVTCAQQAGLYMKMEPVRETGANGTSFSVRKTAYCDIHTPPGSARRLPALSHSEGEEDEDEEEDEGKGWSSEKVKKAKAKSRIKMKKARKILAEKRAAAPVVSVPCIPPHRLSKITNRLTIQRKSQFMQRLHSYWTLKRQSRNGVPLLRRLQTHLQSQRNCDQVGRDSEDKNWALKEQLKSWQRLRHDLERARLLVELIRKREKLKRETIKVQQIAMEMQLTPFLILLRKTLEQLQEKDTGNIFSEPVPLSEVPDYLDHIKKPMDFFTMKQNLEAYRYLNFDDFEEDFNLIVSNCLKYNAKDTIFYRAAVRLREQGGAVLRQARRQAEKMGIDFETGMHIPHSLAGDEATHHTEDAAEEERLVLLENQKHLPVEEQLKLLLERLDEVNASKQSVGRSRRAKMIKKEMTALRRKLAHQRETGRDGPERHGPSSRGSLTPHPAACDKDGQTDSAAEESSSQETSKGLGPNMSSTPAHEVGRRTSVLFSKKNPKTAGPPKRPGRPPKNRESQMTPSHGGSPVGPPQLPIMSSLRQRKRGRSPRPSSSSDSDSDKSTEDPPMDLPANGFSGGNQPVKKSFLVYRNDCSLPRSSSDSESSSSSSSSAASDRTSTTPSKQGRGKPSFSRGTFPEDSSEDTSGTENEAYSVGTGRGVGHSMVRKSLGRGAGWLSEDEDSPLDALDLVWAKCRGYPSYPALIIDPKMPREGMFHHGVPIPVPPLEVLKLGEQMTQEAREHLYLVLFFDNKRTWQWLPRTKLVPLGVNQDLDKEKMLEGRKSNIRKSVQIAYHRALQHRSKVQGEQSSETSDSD
UniProt Q9UNL4: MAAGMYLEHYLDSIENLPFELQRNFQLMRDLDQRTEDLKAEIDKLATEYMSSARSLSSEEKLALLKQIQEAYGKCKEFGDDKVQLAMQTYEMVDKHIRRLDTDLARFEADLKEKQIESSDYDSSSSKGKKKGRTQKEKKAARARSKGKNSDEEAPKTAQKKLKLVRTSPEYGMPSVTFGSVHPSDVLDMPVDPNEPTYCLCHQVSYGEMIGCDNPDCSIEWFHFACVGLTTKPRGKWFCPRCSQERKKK
UniProt Q8WYH8: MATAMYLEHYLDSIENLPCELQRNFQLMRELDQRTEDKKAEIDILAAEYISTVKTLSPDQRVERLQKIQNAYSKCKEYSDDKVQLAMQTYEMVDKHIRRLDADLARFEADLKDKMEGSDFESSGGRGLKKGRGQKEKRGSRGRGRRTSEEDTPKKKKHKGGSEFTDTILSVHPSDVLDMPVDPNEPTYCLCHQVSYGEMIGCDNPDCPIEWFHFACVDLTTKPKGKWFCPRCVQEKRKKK

Molecular target: 3xFLAG-2xStrep-tagged MORF (full length), expressed from the AAVS1 locus in K562 cells (human) (UniProt Q8WYB5)
Assay: co-IP; tandem affinity purification (FLAG, then Strep) of 3xFLAG-2xStrep MORF from K562 nuclear extracts; Western blots with antibodies against MEAF6, ING5 and Brd1 (recognizes BRPF1 and BRPF2)

Row | binding | Substance
1 | binds | BRPF1 (endogenous, K562) (from UniProt P55201 1-1214)
2 | binds | ING4 (endogenous, K562) (from UniProt Q9UNL4 1-249)
3 | binds | ING5 (endogenous, K562) (from UniProt Q8WYH8 1-240)
